## Screening data, single-dose tests

Amino acid sequences for entries named in this document (tags omitted). Residues count along the entry.
UniProt Q8IDJ8, 1-583: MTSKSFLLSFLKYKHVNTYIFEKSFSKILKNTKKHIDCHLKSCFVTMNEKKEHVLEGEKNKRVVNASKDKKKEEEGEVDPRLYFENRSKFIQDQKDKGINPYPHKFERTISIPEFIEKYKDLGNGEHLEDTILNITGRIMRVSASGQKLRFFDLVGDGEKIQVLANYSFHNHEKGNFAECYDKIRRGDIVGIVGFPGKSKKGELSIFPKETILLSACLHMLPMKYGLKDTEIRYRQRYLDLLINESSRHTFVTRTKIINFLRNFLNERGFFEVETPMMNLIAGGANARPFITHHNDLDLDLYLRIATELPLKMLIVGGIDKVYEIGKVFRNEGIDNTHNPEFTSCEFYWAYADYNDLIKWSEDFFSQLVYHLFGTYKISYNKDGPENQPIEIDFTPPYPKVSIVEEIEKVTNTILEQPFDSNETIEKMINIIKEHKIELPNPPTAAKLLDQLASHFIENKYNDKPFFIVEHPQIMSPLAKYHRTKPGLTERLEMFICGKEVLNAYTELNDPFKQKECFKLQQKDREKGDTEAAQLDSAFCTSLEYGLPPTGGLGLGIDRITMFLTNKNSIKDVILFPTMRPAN
UniProt Q4DA54, 1-478: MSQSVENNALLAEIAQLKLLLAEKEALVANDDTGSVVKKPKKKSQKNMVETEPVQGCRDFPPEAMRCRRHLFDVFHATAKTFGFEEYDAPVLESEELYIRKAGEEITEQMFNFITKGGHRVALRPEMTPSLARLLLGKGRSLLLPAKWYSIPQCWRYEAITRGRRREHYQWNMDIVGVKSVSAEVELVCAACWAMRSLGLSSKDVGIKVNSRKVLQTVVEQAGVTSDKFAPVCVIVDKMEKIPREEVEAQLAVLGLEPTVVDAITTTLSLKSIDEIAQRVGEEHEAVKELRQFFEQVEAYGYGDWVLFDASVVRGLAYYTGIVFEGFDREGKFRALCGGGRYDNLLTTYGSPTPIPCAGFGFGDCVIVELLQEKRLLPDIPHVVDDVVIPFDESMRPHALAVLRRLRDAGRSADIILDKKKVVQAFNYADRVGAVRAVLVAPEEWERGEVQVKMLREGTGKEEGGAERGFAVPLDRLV
UniProt I6X8D2, whole entry: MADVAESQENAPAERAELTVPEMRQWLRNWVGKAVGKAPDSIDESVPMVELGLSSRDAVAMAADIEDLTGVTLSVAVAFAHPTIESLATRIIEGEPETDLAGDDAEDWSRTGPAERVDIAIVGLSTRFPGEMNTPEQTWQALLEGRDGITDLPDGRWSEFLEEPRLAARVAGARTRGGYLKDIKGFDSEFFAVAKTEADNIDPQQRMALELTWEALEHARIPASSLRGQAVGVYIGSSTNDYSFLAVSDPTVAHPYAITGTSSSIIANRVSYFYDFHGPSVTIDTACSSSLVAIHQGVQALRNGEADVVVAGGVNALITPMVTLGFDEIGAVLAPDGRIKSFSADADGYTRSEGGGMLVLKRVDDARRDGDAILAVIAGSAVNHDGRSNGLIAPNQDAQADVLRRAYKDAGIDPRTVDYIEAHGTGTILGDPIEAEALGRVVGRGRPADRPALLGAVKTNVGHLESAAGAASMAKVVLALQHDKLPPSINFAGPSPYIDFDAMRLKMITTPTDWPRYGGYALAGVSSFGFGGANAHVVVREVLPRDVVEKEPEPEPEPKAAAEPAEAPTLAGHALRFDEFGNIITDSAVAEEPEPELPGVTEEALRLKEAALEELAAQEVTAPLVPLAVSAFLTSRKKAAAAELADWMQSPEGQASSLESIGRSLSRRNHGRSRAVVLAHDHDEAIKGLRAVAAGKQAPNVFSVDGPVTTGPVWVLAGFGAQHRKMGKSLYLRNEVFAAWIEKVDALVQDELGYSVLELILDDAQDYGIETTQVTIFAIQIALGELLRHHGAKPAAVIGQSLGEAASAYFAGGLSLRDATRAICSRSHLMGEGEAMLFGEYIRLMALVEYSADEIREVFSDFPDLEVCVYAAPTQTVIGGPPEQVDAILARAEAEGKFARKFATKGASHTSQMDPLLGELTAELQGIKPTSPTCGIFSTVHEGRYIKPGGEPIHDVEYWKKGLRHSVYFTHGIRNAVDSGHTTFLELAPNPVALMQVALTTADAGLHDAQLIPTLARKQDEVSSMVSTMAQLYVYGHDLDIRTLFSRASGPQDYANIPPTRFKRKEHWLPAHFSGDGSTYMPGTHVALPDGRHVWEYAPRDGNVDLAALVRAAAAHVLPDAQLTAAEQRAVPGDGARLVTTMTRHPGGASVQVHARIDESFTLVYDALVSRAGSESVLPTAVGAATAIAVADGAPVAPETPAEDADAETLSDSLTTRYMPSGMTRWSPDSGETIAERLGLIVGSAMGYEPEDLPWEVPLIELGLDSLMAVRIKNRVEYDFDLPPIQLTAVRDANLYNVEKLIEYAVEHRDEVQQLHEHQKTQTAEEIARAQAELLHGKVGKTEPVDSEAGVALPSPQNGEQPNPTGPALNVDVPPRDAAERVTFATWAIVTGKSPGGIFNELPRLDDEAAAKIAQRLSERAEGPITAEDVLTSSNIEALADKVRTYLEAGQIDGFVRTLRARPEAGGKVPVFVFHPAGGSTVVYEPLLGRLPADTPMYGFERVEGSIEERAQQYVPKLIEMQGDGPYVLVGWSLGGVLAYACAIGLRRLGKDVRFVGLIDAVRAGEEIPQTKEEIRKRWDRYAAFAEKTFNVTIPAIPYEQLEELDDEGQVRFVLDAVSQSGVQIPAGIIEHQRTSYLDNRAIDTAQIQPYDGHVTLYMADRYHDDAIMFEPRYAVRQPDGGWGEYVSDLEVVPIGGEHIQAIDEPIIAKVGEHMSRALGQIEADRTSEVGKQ

Results are given as percent effect. The controls that fix the scale are not given in the record; negative values are as filed. Compounds were drawn at random from those tested, without regard to their results. A dash means the value is not listed here; it may have been measured.

PfKRS1: 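Lysine-tRNA ligase, Plasmodium falciparum 3D7 (UniProt Q8IDJ8). Enzyme assay of the cytosolic lysyl-tRNA synthetase in 384-well plates, read by luminescence. Compounds at 30 µM. Higher reads as stronger inhibition, judged from the few compounds that gave an IC50. About 69,000 compounds were tested under these conditions; 0.071% (about 49) showed 50% or more at least once.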
TcHisRS: 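Histidine-tRNA ligase, Trypanosoma cruzi CL Brener (UniProt Q4DA54). Enzyme assay of histidyl-tRNA synthetase; the read-out is not stated. Compounds at 30 µM. Higher reads as stronger inhibition (inferred: compounds with an IC50 in retests scored well above the rest). Of about 69,000 compounds tested this way, about 31 (0.045%) reached 50% or more in at least one test.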
Pks13 thioesterase: 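Enzyme assay of the thioesterase domain of polyketide synthase 13; the read-out is not stated. Target: Polyketide synthase Pks13, Mycobacterium tuberculosis (UniProt I6X8D2). Tested at 30 µM. Higher reads as stronger inhibition (inferred from which compounds were picked for retests). About 67,000 compounds were tested under these conditions; 0.46% (about 300) showed 50% or more at least once.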

Compound,PfKRS1,TcHisRS,Pks13 thioesterase
O[C@@]1(c2ccccn2)CC[C@H]2CN(Cc3cccc(Cl)c3Cl)C[C@H]21,12.19,3.784,-48.67
Clc1ccc(CNc2cnn(CCN3CCOCC3)c2)cc1Cl,-1.449,1.442,-3.819
Cn1nccc1CNC(=O)NC1CCN(c2ncccc2Cl)C1 (stereo not shown),-0.7036,6.173,-13.94
COc1nc2ccccc2cc1C1CC(=O)Nc2n[nH]c(C3CCC3)c21 (stereo not shown),0.9726,14,-25.75
Cc1ccsc1C(CNC(=O)c1cc(=O)c2ccccc2[nH]1)N(C)C (stereo not shown),9.013,2.609,-22.03
NC(=O)CN(Cc1ncc(-c2ccc(Cl)cc2)o1)C1CCCC1,0.06709,3.867,-43.12
Cc1ccc(-c2cc(C3CCNCC3)nc(C)n2)cc1,-0.9441,3.101,3.192
Cc1csc(NC(=O)CN2CCc3c(nc(C4CC4)n3C)C2)n1,2.067,5.764,-3.124
CCC(C)n1c(SCC(=O)N2CCOCC2)nc2cc(C)[nH]c2c1=O (stereo not shown),3.686,-2.439,3.169
O=c1[nH]c(-c2ccncc2)ncc1-c1ccnc(N2CCOCC2)n1,2.496,12.43,11.85
Cc1nccn1CCC1CCCCN1C(=O)c1ccc2nonc2c1 (stereo not shown),-1.401,7.821,-23.98
CNC(=O)N1CCC2(COCc3c(C)nc(NCc4ccco4)nc32)C1 (stereo not shown),3.567,4.813,-38.44
CN1CCN(Cc2cn3c(n2)CN(C(=O)N2CCCC2)CC3)CC1,3.151,-1.493,-21.77
CC(=O)N1CCO[C@@H]2CN(Cc3cccc(Cl)c3)C[C@@H]2C1,6.923,5.525,-0.1303
CN(C)S(=O)(=O)N1CC[C@]2(O)CCN(Cc3cc(F)cc(F)c3)C[C@@H]2C1,4.669,1.657,-6.083
CC(C)NC(=O)[C@H]1C[C@@H]2CN(C(=O)NCc3ccccc3)C[C@H]1O2,0.758,9.091,-23.34
OC1(CNCc2ccc(F)c(C(F)(F)F)c2)CCOC1 (stereo not shown),6.279,2.956,-25.84
Cc1nnc(N2CCC(CN(C)C(C)C)CC2)c(C#N)c1C,0.922,4.906,-12.36
O=C1CC(c2cccs2)c2sc(C(=O)O)c(-c3ccccc3)c2N1 (stereo not shown),5.09,-2.424,-24.3
CC(C)c1cccc(S(=O)(=O)NCCCN2CCC(O)CC2)c1,-0.9117,1.786,-8.305
CCn1c(N)nc2cc(C(=O)NCCc3sccc3C)cnc21,-1.008,0.8264,-16.91
CC(c1cccc(Cl)c1)N(C)CCS(=O)(=O)CCC(N)=O (stereo not shown),6.707,3.448,-2.206
CC(=O)NCCNC(=O)CN1CCCC1c1c(C)nn(C)c1C (stereo not shown),-0.3741,-2.035,-6.441
CN(C)c1cccc(C2CCCN2CCCN2CCOC2=O)c1 (stereo not shown),3.181,10.59,-4.926
O=C(NCc1ccccc1)c1nn(C2CCS(=O)(=O)C2)c2c1CCCC2 (stereo not shown),-1.888,1.242,-19.41
O=C(CN1CCN(C(=O)c2ccccc2)CC1)Nc1ncc(Br)cc1Br,6.543,7.772,1.964
c1cnc(N2CCOC3(COCCN(Cc4cc[nH]n4)C3)C2)nc1 (stereo not shown),4.805,21.93,-44.61
COc1ccccc1CNC(C)c1ccc(-n2ccnc2)cc1 (stereo not shown),4.131,14.45,-29.05
CSCCC(C)(O)CNC(=O)Nc1ccccc1C (stereo not shown),8.115,2.062,-27.61
O=C(C1CN(Cc2ccsc2)Cc2ccnn2C1)N1CCCC1 (stereo not shown),-1.237,6.452,-31.26
Cc1ccccc1C1CCN(CCn2cc(-c3nccn3C)nn2)C1 (stereo not shown),-0.2772,7.792,-27.66
CN(C)c1ncnc2c1CCN(CC1CCCC1)CC2,6.485,1.657,-17.48
CS(=O)(=O)N1CCCC(Cc2ccnc(Nc3ccccn3)c2)C1 (stereo not shown),-0.9959,9.848,0.8342
O=C(NC[C@H]1OC[C@@H](NC2CCC2)[C@@H]1O)c1cccs1,6.641,9.901,14.67
O=C(c1nc(COc2ccc3c(c2)OCO3)no1)N1CCCC1,3.23,0.5464,-12.02
O=C(NCCn1nc(C2CCNC2)c2cccnc21)C1CC1 (stereo not shown),8.702,6.383,2.05
COCCC(=O)N1CCCC(CCC(=O)NCc2ccccc2F)C1 (stereo not shown),5.686,0.8929,-7.506
CCOC(=O)N1CCC(OC)c2ccccc2N(CC(=O)NC)C(=O)C1 (stereo not shown),6.626,10.11,12.2
CCOCCn1c(=O)[nH]c2cc(C(=O)N(C)Cc3ccno3)ccc21,6.682,-1.667,-1.38
CC(O)CC(C)(C)CNC(=O)Nc1cnn(-c2ccccc2F)c1 (stereo not shown),4.826,-0.4926,-
O=C(Cn1cccn1)NCC(c1cccs1)N1CCCC1 (stereo not shown),0.0245,5.747,2.815
Cc1ccc(C(C)(C)CNC(=O)NC(C)Cn2cncn2)cc1 (stereo not shown),0.6674,3.804,-30.91
O=C(NCc1nnc2ccccn12)N1CCOC(c2cccs2)C1 (stereo not shown),1.236,6.024,0.3342
Cc1noc(C)c1CN(C)c1ncnc2ccccc12,5.613,6.316,-13.8
CSc1ccccc1NC(=O)C1CSc2ncc(C)c(=O)n2C1 (stereo not shown),1.575,4.819,-16.97
CN(Cc1cnn(C)c1)C(=O)c1ccc(Cl)c(N2CCNC2=O)c1,1.33,-3.659,7.373
O=C(c1nnn(-c2ccccc2)n1)N(CCO)CCO,3.307,1.587,-7.945
O=C(NCCCc1ccncc1)C1CCCN(Cc2ccco2)C1 (stereo not shown),1.646,1.245,-12.25
Cn1ccc(C(=O)N(CC(F)(F)F)c2cccc(Cl)c2)cc1=O,0.1034,5.946,21.82
O=C(NCc1cc2n(n1)CCCNC2)C1(c2ccccc2)CCCCC1,1.729,5.464,-17.7
Cn1cc(CN2CCc3c(COCc4ccncc4)cncc3C2)cn1,6.665,0.9901,-24.95
CSc1ccc(CN(C)Cc2noc(C(C)(C)C)n2)cc1,1.628,-0.4484,13.78
CCS(=O)(=O)c1ncc(CN(C)Cc2cccc(OC)c2)n1CCOC,-5.037,-0.5025,7.642
CC1CCN(C(=O)C2CCN(c3ccc(Cl)cc3C#N)CC2)CC1,5.597,3.627,9.143
CC(C)[C@@H]1CN(Cc2ccccc2C#N)C[C@H]1N(C)C,1.093,1.266,-38.99
CS(=O)(=O)c1ccc(CNC(=O)N2CCC(c3ccccc3)CC2)cc1,7.597,3.008,-13.5
Cc1ccc(S(=O)(=O)N2CCOCC2C#N)cc1Br (stereo not shown),5.297,6.897,-11.15
COc1ccccc1OCCCc1cc(C)nc(N)n1,-0.4027,-10.99,-33.87
Cc1csc(Nc2nccnc2C2CCCN2S(C)(=O)=O)n1 (stereo not shown),4.223,-2.198,32.48
Cc1ccc(N2CCO[C@H]3CN(CC4CC4)C[C@H]32)nn1,3.039,2.762,-26.55
COCCN1CCC2(CC1)CN(C(=O)Cc1cccnc1)CCO2,3.84,1.942,-20.24
CN(CCOCC1CC1)C(=O)Nc1ccc([S+](C)[O-])c(F)c1 (stereo not shown),1.338,0,-7.543
N#Cc1ccc(S(=O)(=O)N2CSCC2C(=O)NCC(F)(F)F)cc1 (stereo not shown),2.469,5.634,-32.8

For reference, 5 entries once more:

Compound	PfKRS1	TcHisRS	Pks13 thioesterase
O=C(NCc1cc2n(n1)CCCNC2)C1(c2ccccc2)CCCCC1	1.729	5.464	-17.7
CC(=O)N1CCO[C@@H]2CN(Cc3cccc(Cl)c3)C[C@@H]2C1	6.923	5.525	-0.1303
Cc1ccc(S(=O)(=O)N2CCOCC2C#N)cc1Br (stereo not shown)	5.297	6.897	-11.15
O=C(NCCCc1ccncc1)C1CCCN(Cc2ccco2)C1 (stereo not shown)	1.646	1.245	-12.25
O[C@@]1(c2ccccn2)CC[C@H]2CN(Cc3cccc(Cl)c3Cl)C[C@H]21	12.19	3.784	-48.67

From ChEMBL document CHEMBL3988442, “University of Dundee, Small-Polar-MMV Screening Library” (2021).